Experimental findings from patent US20090041784A1 are described below.

By UniProt entry, the sequences of proteins in these tests, tags left out. Where a name states a change or a piece, a line headed by the entry shows the natural chain unless it says otherwise.
UniProt P47871: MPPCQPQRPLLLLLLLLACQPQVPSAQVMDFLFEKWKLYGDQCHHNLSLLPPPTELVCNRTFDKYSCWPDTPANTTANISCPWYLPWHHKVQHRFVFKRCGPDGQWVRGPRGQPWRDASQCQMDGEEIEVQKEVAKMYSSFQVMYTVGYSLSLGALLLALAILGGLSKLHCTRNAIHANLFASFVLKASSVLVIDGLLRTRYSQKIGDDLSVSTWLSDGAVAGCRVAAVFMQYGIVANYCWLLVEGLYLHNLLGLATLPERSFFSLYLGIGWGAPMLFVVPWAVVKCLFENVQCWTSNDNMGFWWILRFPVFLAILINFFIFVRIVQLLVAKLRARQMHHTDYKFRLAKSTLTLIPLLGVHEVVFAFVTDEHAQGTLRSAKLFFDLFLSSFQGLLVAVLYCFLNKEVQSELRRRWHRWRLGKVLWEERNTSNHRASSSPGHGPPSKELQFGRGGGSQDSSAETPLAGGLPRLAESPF

The target of the test is human glucagon receptor (human) (UniProt P47871). The experiment in a line: competition with 1 nM Alexa-labeled A-3 for human GCGR on CHO cells, FMAT.

Results are given in words; binding and its absence hold for the method and conditions named. Some entries that bind do so weakly or less than the wild type.

B1: antibody A-7 (antibody, V domains shown)
VH: QVQLVESGGGVVQPGRSLRLSCAASGFTFSSYDMHWVRQAPGKGLEWVAVISHDGSDKYYADSVKGRFTISRDNSKNTLYLQMSSLRAEDTAVYYCAREKPYYDILTGYFYYYGMDVWGQGTTVTVSS
VL: DIQMTQSPSSLSASVGDRVTVTCRASQDIRNDFGWYQQKPGKAPKRLIYAASSLQSGVPSRFSGSGSGTEFTLTISSLQPEDFATYYCLQQNSYPLTFGGGTKVEIK
With B1, the binding entry is “binds”.
